PMC7862700
Only a part is listed here, and it is no random draw. At the low end of the ranking, values are background and their order means little.

Key:
Assay in all cases: DAPPL (digital affinity profiling via proximity ligation, sequencing)
Settings in all cases: 10 mM Tris-HCl pH 7.5, 50 mM NaCl, 1 mM DTT, 4% glycerol, room temperature, 30 min; GST-TFs on glutathione beads, 16-mer random dsDNA library, 0.1% …; high values mean tight binding; double strand, one strand shown; scale: fold enrichment (6-mer frequency, TF over GST control)
SPIC = target: T1, SPIC (UniProt Q8N5J4)
T1 sequence: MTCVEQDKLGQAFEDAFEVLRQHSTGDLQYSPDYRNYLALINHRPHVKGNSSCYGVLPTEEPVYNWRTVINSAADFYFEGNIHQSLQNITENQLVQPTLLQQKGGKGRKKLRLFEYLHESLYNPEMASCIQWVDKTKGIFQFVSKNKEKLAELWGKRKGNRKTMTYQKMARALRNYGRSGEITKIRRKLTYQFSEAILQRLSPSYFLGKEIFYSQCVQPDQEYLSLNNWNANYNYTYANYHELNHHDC

ELK1 = target: T2, ELK1 (UniProt P19419)
T2 sequence: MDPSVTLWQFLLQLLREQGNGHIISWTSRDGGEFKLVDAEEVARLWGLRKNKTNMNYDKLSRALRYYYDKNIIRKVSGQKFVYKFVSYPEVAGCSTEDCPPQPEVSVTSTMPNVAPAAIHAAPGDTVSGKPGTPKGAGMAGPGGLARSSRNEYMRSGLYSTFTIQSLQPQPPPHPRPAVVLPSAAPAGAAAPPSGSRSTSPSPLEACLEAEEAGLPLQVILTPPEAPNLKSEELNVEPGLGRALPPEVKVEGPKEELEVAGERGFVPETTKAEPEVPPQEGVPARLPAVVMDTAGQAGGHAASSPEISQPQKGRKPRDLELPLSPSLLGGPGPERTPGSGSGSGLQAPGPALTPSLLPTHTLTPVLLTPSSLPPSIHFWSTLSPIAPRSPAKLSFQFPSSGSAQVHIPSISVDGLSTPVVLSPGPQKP

ETS2 = target: T3, ETS2 (UniProt P15036)
T3 sequence: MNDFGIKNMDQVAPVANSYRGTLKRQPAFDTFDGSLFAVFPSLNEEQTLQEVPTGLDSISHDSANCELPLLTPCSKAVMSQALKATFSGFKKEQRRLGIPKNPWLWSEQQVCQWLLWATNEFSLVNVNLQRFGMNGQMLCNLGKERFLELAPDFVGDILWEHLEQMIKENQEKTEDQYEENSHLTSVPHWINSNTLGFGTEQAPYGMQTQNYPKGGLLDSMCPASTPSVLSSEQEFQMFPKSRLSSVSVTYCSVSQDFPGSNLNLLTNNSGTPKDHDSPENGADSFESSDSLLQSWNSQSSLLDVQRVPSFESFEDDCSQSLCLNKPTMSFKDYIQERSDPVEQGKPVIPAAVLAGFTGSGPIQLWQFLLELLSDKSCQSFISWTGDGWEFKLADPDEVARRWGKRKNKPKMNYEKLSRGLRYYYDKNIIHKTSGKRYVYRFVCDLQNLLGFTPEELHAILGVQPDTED

ETV3 = target: T4, ETV3 (UniProt P41162-2)
T4 sequence: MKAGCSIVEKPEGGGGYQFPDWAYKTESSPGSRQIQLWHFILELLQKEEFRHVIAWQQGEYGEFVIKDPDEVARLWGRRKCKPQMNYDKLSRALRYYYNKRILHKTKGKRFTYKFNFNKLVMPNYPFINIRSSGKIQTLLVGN

Sequence: AGTATT
- binding signal (SPIC): 1.22

Sequence: ATTGGC
- binding signal (SPIC): 0.978

Sequence: ACGGAA
- binding signal (SPIC): 1.69

Sequence: GCCCAC
- binding signal (SPIC): 1.13

Sequence: ATTAAA
- binding signal (SPIC): 1.14

Sequence: TCCTGA
- binding signal (SPIC): 1.32

Sequence: CTATCC
- binding signal (SPIC): 1.36

Sequence: CTAACT
- binding signal (SPIC): 1.31

Sequence: CTCCCT
- binding signal (SPIC): 1.38

Sequence: GACTTT
- binding signal (SPIC): 1.21

Sequence: ACGCCT
- binding signal (SPIC): 1.25

Sequence: CGGAAG
- binding signal (SPIC): 2.79

Sequence: ATGCTA
- binding signal (SPIC): 1.23

Sequence: GCACGC
- binding signal (SPIC): 1.06

Sequence: TCTCGT
- binding signal (SPIC): 1.31

Sequence: CCTATA
- binding signal (SPIC): 1.35

Sequence: TCATGA
- binding signal (SPIC): 1.07

Sequence: TCCGGG
- binding signal (SPIC): 1.63

Sequence: TATGTC
- binding signal (SPIC): 0.966

Sequence: GGTAAA
- binding signal (SPIC): 0.913

Sequence: CTGTAC
- binding signal (SPIC): 1.41

Sequence: CTGTCC
- binding signal (SPIC): 1.13

Sequence: ACCGCA
- binding signal (SPIC): 0.937

Sequence: CACCGG
- binding signal (SPIC): 0.992

Sequence: TCAAGG
- binding signal (SPIC): 0.997

Sequence: ACATCG
- binding signal (SPIC): 0.862

Sequence: TCATCC
- binding signal (SPIC): 1.39

Sequence: GGCATT
- binding signal (SPIC): 0.992

Sequence: ATCACA
- binding signal (SPIC): 1.09

Sequence: ACGACA
- binding signal (SPIC): 1.18

Sequence: GTATCA
- binding signal (SPIC): 1.03

Sequence: ACAACT
- binding signal (SPIC): 1.39

Sequence: CAAGAT
- binding signal (SPIC): 1.14

Sequence: CATTTG
- binding signal (SPIC): 1.15

Sequence: CCATCC
- binding signal (SPIC): 1.33

Sequence: TAACCA
- binding signal (SPIC): 0.943

Sequence: TAATTC
- binding signal (SPIC): 1.44

Sequence: CCAACC
- binding signal (SPIC): 0.985

Sequence: TGGCCG
- binding signal (SPIC): 0.989

Sequence: GTCCAT
- binding signal (ELK1): 1.07
- binding signal (SPIC): 1.17

Sequence: CCTGTA
- binding signal (ELK1): 1.16
- binding signal (SPIC): 1.23

Sequence: AAACGA
- binding signal (ELK1): 1.14
- binding signal (SPIC): 1.02

Sequence: CCCCTT
- binding signal (ELK1): 1.55
- binding signal (SPIC): 1.56

Sequence: TTTATC
- binding signal (ELK1): 1.27
- binding signal (SPIC): 1.26

Sequence: CACAAC
- binding signal (ELK1): 1.24
- binding signal (SPIC): 1.25

Sequence: AAATAC
- binding signal (ELK1): 1.27
- binding signal (SPIC): 1.3

Sequence: CCACCT
- binding signal (ELK1): 1.12
- binding signal (SPIC): 1.19

Sequence: AATCCA
- binding signal (ELK1): 1.07
- binding signal (SPIC): 0.97

Sequence: CCTGAC
- binding signal (ELK1): 1.57
- binding signal (SPIC): 1.3

Sequence: CTGGAA
- binding signal (ELK1): 1.25
- binding signal (SPIC): 1.2

Sequence: CGCCTG
- binding signal (ELK1): 1.17
- binding signal (SPIC): 0.902

Sequence: CTATGG
- binding signal (ELK1): 1.14
- binding signal (SPIC): 1.14

Sequence: AGCTAG
- binding signal (ELK1): 1
- binding signal (SPIC): 1.08

Sequence: ATATTC
- binding signal (ELK1): 1.2
- binding signal (SPIC): 1.3

Sequence: TAGAAG
- binding signal (ELK1): 1.19
- binding signal (SPIC): 1.31

Sequence: ATGGCA
- binding signal (ELK1): 1.22
- binding signal (SPIC): 1.21

Sequence: TTCCAA
- binding signal (ELK1): 1.19
- binding signal (SPIC): 1.31

Sequence: ACCATC
- binding signal (ELK1): 1.14
- binding signal (SPIC): 1.02

Sequence: CACCGC
- binding signal (ELK1): 1.01
- binding signal (SPIC): 0.813

Sequence: CCATAC
- binding signal (ELK1): 1.07
- binding signal (SPIC): 1.13

Sequence: TACGGA
- binding signal (ELK1): 1.25
- binding signal (SPIC): 1.21

Sequence: ATTGCA
- binding signal (ELK1): 1.31
- binding signal (SPIC): 1.1

Sequence: CAAAGC
- binding signal (ELK1): 1.02
- binding signal (SPIC): 0.959

Sequence: CGCGTT
- binding signal (ELK1): 0.941
- binding signal (SPIC): 0.962

Sequence: GTTATC
- binding signal (ELK1): 0.996
- binding signal (SPIC): 0.994

Sequence: ATGTTT
- binding signal (ELK1): 1.37
- binding signal (SPIC): 1.27

Sequence: CCACCG
- binding signal (ELK1): 0.994
- binding signal (SPIC): 0.925

Sequence: CTGGTC
- binding signal (ELK1): 1.23
- binding signal (SPIC): 1.2

Sequence: GTTCTC
- binding signal (ELK1): 1.18
- binding signal (SPIC): 1.36

Sequence: AAGAAC
- binding signal (ELK1): 1.18
- binding signal (SPIC): 1.24

Sequence: GCTACT
- binding signal (ELK1): 1.25
- binding signal (SPIC): 1.3

Sequence: GGACAT
- binding signal (ELK1): 1.19
- binding signal (SPIC): 1.28

Sequence: ACAACC
- binding signal (ELK1): 1.28
- binding signal (SPIC): 1.19

Sequence: CGCACA
- binding signal (ELK1): 1.08
- binding signal (SPIC): 0.951

Sequence: AGTAAA
- binding signal (ELK1): 0.923
- binding signal (SPIC): 0.974

Sequence: CTTTAG
- binding signal (ELK1): 1.31
- binding signal (SPIC): 0.955

Sequence: TAGTGC
- binding signal (ELK1): 1.02
- binding signal (SPIC): 0.883

Sequence: AATAAA
- binding signal (ELK1): 1.2
- binding signal (SPIC): 1.26

Sequence: ACCTGT
- binding signal (ELK1): 1.05
- binding signal (SPIC): 1.06

Sequence: GCCTGT
- binding signal (ELK1): 0.937
- binding signal (SPIC): 0.997
- binding signal (ETS2): 0.843

Sequence: GTGTTA
- binding signal (ELK1): 1.02
- binding signal (SPIC): 0.872
- binding signal (ETS2): 0.978
- binding signal (ETV3): 0.998
